The values below come from patent US20250250330A1.

Chains of the proteins cited; added tags and fusions are not shown. Lines headed by an entry give the natural chain unless they say otherwise; changes in a name come on top. A line that says so, or that is headed by a name, gives the form on record, which may keep a tag or linker. Residues count along the entry.
Recombinant human VEGF165 (Peprotech, Cat #100-20) (P15692, form named): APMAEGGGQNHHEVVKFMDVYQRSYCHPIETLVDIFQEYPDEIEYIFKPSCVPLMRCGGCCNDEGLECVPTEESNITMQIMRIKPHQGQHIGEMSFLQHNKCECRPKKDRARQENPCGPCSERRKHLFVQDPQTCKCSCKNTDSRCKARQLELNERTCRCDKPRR
UniProt O15123, residues 275-496: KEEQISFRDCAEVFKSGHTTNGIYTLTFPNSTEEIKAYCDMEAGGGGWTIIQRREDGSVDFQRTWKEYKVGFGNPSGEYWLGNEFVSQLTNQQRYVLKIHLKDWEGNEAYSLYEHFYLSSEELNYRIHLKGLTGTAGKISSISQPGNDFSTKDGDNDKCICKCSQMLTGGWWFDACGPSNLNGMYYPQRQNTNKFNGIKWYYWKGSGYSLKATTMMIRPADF

These are yes or no findings as the source states them, for the method shown. Some entries that bind do so weakly or less than the wild type.

Experiment [1] has as its target Recombinant human VEGF165 (Peprotech, Cat #100-20) (human) (UniProt P15692). Briefly: ELISA on rhVEGF165. A general note: An ELISA detects its analyte on a solid surface through an enzyme-linked reagent.
The target of experiment [2] is His-tagged recombinant human ANG-2 (AcroBiosystems, Cat #AN2-H52H4) (human) (UniProt O15123). Briefly: ELISA on rhANG-2.

B1: RP-014_VEGF-A_Sab (Fab, V domains shown, not shown: a dimerising Fc or GST)
VH: QVQLVQSGAEVKKPGASVKVSCKASGYTFSIYTIHWVRQAPGQGLEWMGGINPYNGNTKYAQKFQGRVTMTRDTSISTAYMELSRLRSDDTAVYYCAKAPAVFWWTGLDYWGQGTLVTVSS
VL: QPVLHQPPAMSSALGTTIRLTCTLRNDHDIGVYSVYWYQQRPGHPPRFLLRYFSQSDKSQGPQVPPRFSGSKDVARNRGYLSISELQPEDEAMYYCAMGARSSVTHVFGSGTQLTVLS
Turning to B1, in experiment [1], the binding result is reported as “binds”.

B2: RP-017_ANG-2_Sab (Fab, V domains shown, not shown: a dimerising Fc or GST)
VH: EVQLVESGGGLVKPGGSLRLSCAASGFTFSSYGMHWVRQAPGKGLEWVAGISADSGDKNYADSVKGRFTISRDNAKNSLYLQMNSLRAEDTAVYYCAKEFISWIYTFDYLDYWGQGTLVTVSS
VL: QPVLHQPPAMSSALGTTIRLTCTLRNDHDIGVYSVYWYQQRPGHPPRFLLRYFSQSDKSQGPQVPPRFSGSKDVARNRGYLSISELQPEDEAMYYCAMGARSSVTHVFGSGTQLTVLS
Take B2: in experiment [2], the binding entry is listed as “binds”.
